These results are taken from article PMC529442.

Chains of the proteins cited; added tags and fusions are not shown.
UniProt Q24572: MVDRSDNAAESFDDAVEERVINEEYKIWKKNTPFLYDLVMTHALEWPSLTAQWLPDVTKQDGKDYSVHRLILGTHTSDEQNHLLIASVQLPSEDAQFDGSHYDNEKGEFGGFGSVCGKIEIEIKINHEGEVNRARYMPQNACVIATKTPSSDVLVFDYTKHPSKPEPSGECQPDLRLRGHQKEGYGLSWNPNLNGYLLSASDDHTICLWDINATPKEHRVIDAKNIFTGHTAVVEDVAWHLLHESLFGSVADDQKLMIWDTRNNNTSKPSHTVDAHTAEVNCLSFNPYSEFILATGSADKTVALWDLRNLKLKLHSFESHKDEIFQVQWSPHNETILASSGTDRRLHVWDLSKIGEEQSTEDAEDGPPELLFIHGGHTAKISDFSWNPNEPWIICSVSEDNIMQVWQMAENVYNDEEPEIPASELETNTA

Results are given in words; binding and its absence hold for the method and conditions named. Some binding calls cover weakened binding; strength is not graded here. Tags and fused reporters may be left off the sequences shown.

This experiment deals with p55 (yeast two-hybrid fusion) (Drosophila) (UniProt Q24572). The experiment is described as follows: two-hybrid; Matchmaker Two-Hybrid system 3, strain AH109; growth on high-stringency plates (SD/-Ade/-His/-Leu/-Trp), confirmed by X-Gal staining of filter-lifted colonies.

B1: MTA-like (yeast two-hybrid fusion) (protein, UniProt Q9VNF6 1-880)
chain: MATNMYRVGDYVYVETTPNSPYLIRRIEELNKNQTGNVEAKVMCFYRRRDLPNPLVQLADKHQLATAEDSPLATKLKKTWLRTPVSEEQAAQAVLDPSIAALDEERTSPTQTSGGGGSATGNSGSNSSGTSNNNSSSTAIGGGAGGSGGAGGDAEKGEALTSKQRYQIKHRELFLSRQVESIPATQIRGKCSVTLLNETESLQSYLNKDDTFFYCLVFDPNQKTLLADKGEIRVGSRYQCDIPAKLKDTATDDRKLEELESLVWTPEHSLTDRKIDQFLVVSRSIGTFARALDCSSSVKQPSLHMSAAAASRDITLFHAMNILHKHEYSIEESMSSLVPSTGPVLCRDEIEDWSASEANLFEEALEKYGKDFNDIRQDFLPWKTLKQIIEYYYMWKTTDRYVQQKRVKAVEAELKLKQVYIPQYNNNGKGNGTSTKAGGGIYNGTTNGSTDLSSNGKPCESCGTTKSSQWNSVSSGHSTSRLCLSCWEYWRRYGSMKSATKGDAGEGDAKKKSSSAASTPTATLAGLATTPTAVVDLNDDEKISDLTNRQLHRCSIVNCGKEFKLKTHLARHYAQAHGIAISSGSPRPIMKTRTAFYLHTNPMTRVARAICRSIVKPKKAARQSAYAINAMLVKQEFTNRISGKSQAEIKKLLLLKPKDRGSVTKIANRLGAPGSGPHEWLVLTPKDKMPLPAVVSFPKPPKAPDGSLVYDRVPNKSPDVVAVPADKELTIIPTQATSTIRKRAHEDQQLNGTEVTIVPSGPPAKRPNKDPMPSHCPSPEQFAAMMAASGQPLSRHHLNGKQKIAQMARGGNGRKQVISWMDAPDDVYFRANDTHKKTRKILSAVDLRRAARKPWRTLPIKPAAPEPSSRPIESQIVILD
For B1, the binding entry is on record as “binds”.
